From PMC10979747 (Journal of the American Chemical Society, 2024)
Strings that start with PEPTIDE1 are HELM notation: dots part the residues, brackets hold end groups and non-standard residues.

Assay: general procedure: Fmoc solid-phase peptide synthesis; 2-Cl-Trt resin; HATU, HOAt, DIPEA (in-solution macrocyclization)
Conditions: whole synthesis; for final HPLC purity: UPLC λ = 280 nm; for isolated yield: overall, based on the resin loading

Row | Substance | final HPLC purity [%] | isolated yield [%]
1 | PEPTIDE1{[DhaThzPyrThzOMe].W.A.[hGln].R.L.N.[MeNph].L.R.[TicOH].[Dha].G}$PEPTIDE1,PEPTIDE1,1:R1-13:R2$$$V2.0 | 96 | 4
2 | PEPTIDE1{[DhaThzPyrThzOMe].W.A.[MeGly].[MeNph].[Dhb].N.[TicOH].[hGln].[Dha].[Dhb].[Dha].[ValThz]}$PEPTIDE1,PEPTIDE1,1:R1-13:R2$$$V2.0 | 95 | 3
3 | PEPTIDE1{[DhaThzPyrThzOMe].W.W.[hGln].[MeGly].[Dha].[MeGly].[TicOH].[Dha].[Dha].T.[MeNph].[Dha].G}$PEPTIDE1,PEPTIDE1,1:R1-14:R2$$$V2.0 | 98 | 5
4 | PEPTIDE1{[DhaThzPyrThzOMe].W.W.L.R.[Dhb].[MeGly].R.[MeAla].[Dha].T.[MeNph].[Dhb].G}$PEPTIDE1,PEPTIDE1,1:R1-14:R2$$$V2.0 | 95 | 5
5 | PEPTIDE1{[DhaThzPyrThzOMe].W.W.[hGln].[MeGly].[Dhb].[MeGly].[TicOH].[Dha].[Dha].T.[MeNph].[Dhb].G}$PEPTIDE1,PEPTIDE1,1:R1-14:R2$$$V2.0 | 94 | 6
6 | PEPTIDE1{[DhaThzPyrThzOMe].W.T.[TicOH].P.R.L.[MeAla].[MeGly].R.R.S.N.L}$PEPTIDE1,PEPTIDE1,1:R1-14:R2$$$V2.0 | 98 | 3
7 | PEPTIDE1{[DhaThzPyrThzOMe].W.W.L.P.[TicOH].[Dha].[Dhb].[MeGly].[Dha].[Dhb].[DhbThz]}$PEPTIDE1,PEPTIDE1,1:R1-12:R2$$$V2.0 | 96 | 2
8 | PEPTIDE1{[DhaThzPyrThzOMe].W.T.N.S.[MeNph].[TicOH].N.[MeNph].[MeGly].[MeGly].[MeGly].T.P}$PEPTIDE1,PEPTIDE1,1:R1-14:R2$$$V2.0 | 93 | 3
9 | PEPTIDE1{[DhaThzPyrThzOMe].W.W.[SerThz].N.[MeGly].[Dha].[Dha].[MeGly].[MeNph].[TicOH].[Dhb].A}$PEPTIDE1,PEPTIDE1,1:R1-13:R2$$$V2.0 | 96 | 5
